These are yes or no findings as the source states them, for the method shown. Binding seen in cells or lysates may run through a third protein. Some results given as binding are weak or reduced against the parent protein; the word gives no strength.
Experiments:
[1] = biological target: yeast histone H3-Cys, full-length, N-terminally tagged with Avitag (budding yeast) (UniProt P61830); test: cross-linking; spontaneous disulfide cross-link between introduced cysteines in E. coli; H3-Cys and Cse4-Cys expressed together or separately; bacterial culture resuspended in SDS-PAGE loading buffer with and without beta-mercaptoethanol, 15% SDS-PAGE, Western blot (Streptavidin-HRP for H3-Cys, anti-Penta-His for Cse4-Cys); dimers resolved by beta-mercaptoethanol
[2] = biological target: H3 (A111C), untagged (budding yeast) (UniProt P61830); test: cross-linking; ex vivo cysteine cross-linking in crude yeast lysate or on isolated chromatin pellet; DTNB (also bBBr, BMOE) for 1 hour on ice in 25 mM sodium phosphate pH 7.0, 100 mM KCl, 2.5 mM MgCl2, 0.25% TritonX-100; SDS-PAGE without reducing agent, Western blot with anti-HA (H3) or anti-Myc (Cse4)

Chains of the proteins cited; added tags and fusions are not shown. Lines headed by an entry give the natural chain unless they say otherwise; changes in a name come on top. A line that says so, or that is headed by a name, gives the form on record, which may keep a tag or linker.
histone fold domain of Cse4-Cys (D150-end), N-terminally tagged with 6xHis (P36012, form named): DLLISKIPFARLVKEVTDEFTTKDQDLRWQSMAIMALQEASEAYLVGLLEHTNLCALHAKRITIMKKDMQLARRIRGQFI

Row | Substance | binding [1] | binding [2]
1 | histone fold domain of Cse4-Cys (D150-end), N-terminally tagged with 6xHis (from UniProt P36012 150-229) (domain or fragment) | binds | 
2 | Cse4-Myc3 (L204C) (from UniProt P36012 1-229) |  | no binding

— article PMC3364953
